Measurements reported in PubChem BioAssay AID1508597 (Cure First, 2020).
This is an unselected part of the about 2,100 reagents, under one of the conditions tested. 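Calls flag viability under 80% in either arm, not effects specific to rucaparib; the reference for percent is not stated.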 No sequences are given here. Not given: the 100% reference.

Aim: 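Survival screen with siRNA in ovarian cancer cells derived from patients, with or without rucaparib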 (primary screen)
System: human ovarian carcinoma lines grown from tumours: OCI-P5x (papillary serous) and OCI-C5x (clear cell)
Reagents: siRNA pool against human genes, 1.25 pmol siRNA per well
Time to read-out: 72 h or 96 h, depending on the cell culture
Treatment: rucaparib 20 µM (about IC30) or vehicle, present until read-out
Rucaparib or vehicle: Rucaparib
Cell line: OCI-P5x (serous)
Detection: 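ATP luminescence measured at 72 or 96 h according to the culture, then normalised and expressed as percent viability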
Scale: viability, normalised: higher = more viable cells remaining
Active means: 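Active when normalised viability falls below 80 percent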
Calls: active = viability under 80%; inactive = viability 80% or more

| target gene | technical replicate | viability, normalised (%) | call |
| --- | --- | --- | --- |
| TNK1 | 1 | 98.4 | inactive |
| TNK1 | 2 | 88.5 | inactive |
| TNK1 | 3 | 101 | inactive |
| ASCC3 | 1 | 65.2 | active |
| ASCC3 | 2 | 75.6 | active |
| ASCC3 | 3 | 70.5 | active |
| SHPK | 1 | 83.4 | inactive |
| SHPK | 2 | 88.6 | inactive |
| SHPK | 3 | 53.8 | active |
| NAP1L1 | 1 | 30.5 | active |
| NAP1L1 | 2 | 37.9 | active |
| NAP1L1 | 3 | 37.6 | active |
| FANCB | 1 | 85.1 | inactive |
| FANCB | 2 | 95.6 | inactive |
| FANCB | 3 | 74.4 | active |
| MED31 | 1 | 71.9 | active |
| MED31 | 2 | 74.5 | active |
| MED31 | 3 | 82.4 | inactive |
| PGK2 | 1 | 90.9 | inactive |
| PGK2 | 2 | 99.3 | inactive |
| PGK2 | 3 | 111 | inactive |
| ATF7IP2 | 1 | 45.6 | active |
| ATF7IP2 | 2 | 64.7 | active |
| ATF7IP2 | 3 | 71.7 | active |
| ZDHHC3 | 1 | 72.4 | active |
| ZDHHC3 | 2 | 63.5 | active |
| ZDHHC3 | 3 | 70.5 | active |
| TONSL | 1 | 60.6 | active |
| TONSL | 2 | 55.9 | active |
| TONSL | 3 | 60.3 | active |
| ID4 | 1 | 77 | active |
| ID4 | 2 | 55.3 | active |
| ID4 | 3 | 83.5 | inactive |

5 entries from above, set out differently:
target gene,technical replicate,"viability, normalised (%)",call
TONSL,2,55.9,active
TONSL,3,60.3,active
ID4,1,77,active
ID4,2,55.3,active
ID4,3,83.5,inactive

The list goes on:
| target gene | technical replicate | viability, normalised (%) | call |
| --- | --- | --- | --- |
| ABL2 | 1 | 113 | inactive |
| ABL2 | 2 | 107 | inactive |
| ABL2 | 3 | 96.1 | inactive |
| STK40 | 1 | 129 | inactive |
| STK40 | 2 | 117 | inactive |
| STK40 | 3 | 112 | inactive |
| TRDMT1 | 1 | 76.3 | active |
| TRDMT1 | 2 | 75.5 | active |
| TRDMT1 | 3 | 62.9 | active |
| MED27 | 1 | 43.4 | active |
| MED27 | 2 | 62 | active |
| MED27 | 3 | 50.9 | active |
| ARID3A | 1 | 61 | active |
| ARID3A | 2 | 91.4 | inactive |
| ARID3A | 3 | 88.3 | inactive |
| PRDM4 | 1 | 30.9 | active |
| PRDM4 | 2 | 51.5 | active |
| PRDM4 | 3 | 48.7 | active |
| MUSK | 1 | 97.2 | inactive |
| MUSK | 2 | 86.5 | inactive |
| MUSK | 3 | 92.8 | inactive |
| EME2 | 1 | 116 | inactive |
| EME2 | 2 | 107 | inactive |
| EME2 | 3 | 113 | inactive |
